Measured values: PMC7926352, “Synthesis, Characterization and In Vitro Evaluation of Novel 5-Ene-thiazolo[3,2-b][1,2,4]triazole-6(5H)-ones as Possible Anticancer Agents” (Molecules, 2021)

How the values were obtained:
T-47D = format: cell-based; details: Breast Cancer
HL-60 (TB) = details: Leukemia
RXF 393 = details: RXF 393, Renal Cancer
SK-MEL-28 = details: SK-MEL-28, Melanoma
CNS Cancer cell lines = details: CNS Cancer subpanel
SW-620 = details: SW-620, Colon cancer
NCI-H226 = format: cell-based; details: NCI-H226, NSCLC
SK-MEL-5 = details: SK-MEL-5, Melanoma
DU-145 = details: DU-145, Prostate Cancer
MALME-3M = details: Melanoma
HS 578T = details: Breast Cancer
SNB-19 = format: cell-based; details: SNB-19, CNS Cancer
MDA-MB-435 = details: MDA-MB-435, Breast Cancer
BT-549 = details: BT-549, Breast Cancer
Melanoma cell lines = details: Melanoma subpanel
PC-3 = details: PC-3, Prostate Cancer
MDA-MB-231/ATCC = details: Breast Cancer
SN12C = details: Renal Cancer
MOLT-4 = details: MOLT-4, Leukemia
SR = details: Leukemia
OVCAR-8 = details: OVCAR-8, Ovarian Cancer
HOP-62 = details: HOP-62, NSCLC
[1] = system: Ovarian Cancer cell lines; details: Ovarian Cancer subpanel
K-562 = details: K-562, Leukemia
SF-539 = details: SF-539, CNS Cancer
NCI-H522 = details: NCI-H522, NSCLC
786-0 = details: 786-0, Renal Cancer
NCI/ADR-RES = details: Breast Cancer
[2] = system: Prostate Cancer cell lines; details: Prostate Cancer subpanel
NCI-H460 = details: NCI-H460, NSCLC

O=C(COc1ccc(Cl)cc1/C=c1\sc2ncnn2c1=O)Nc1ccc(Cl)cc1 [Compound 2h, (Z)-2-(4-Chloro-2-((6-oxothiazolo[3,2-b][1,2,4]triazol-5(6H)-ylidene)methyl)phenoxy)-N-(4-chlorophenyl)acetamide]
SI (GI50) (T-47D): 0.46
SI (LC50) (T-47D): 1.29
SI (TGI) (T-47D): 0.50
SI (GI50) (HL-60 (TB)): 1.32
SI (LC50) (HL-60 (TB)): 1.00
SI (TGI) (HL-60 (TB)): 1.35
SI (GI50) (RXF 393): 1.86
SI (LC50) (RXF 393): 1.02
SI (TGI) (RXF 393): 1.51
SI (GI50) (SK-MEL-28): 0.57
SI (LC50) (SK-MEL-28): 0.72
SI (TGI) (SK-MEL-28): 0.63
SI (GI50) (CNS Cancer cell lines): 1.23
SI (LC50) (CNS Cancer cell lines): 0.96
SI (TGI) (CNS Cancer cell lines): 1.19
SI (GI50) (SW-620): 0.83
SI (LC50) (SW-620): 0.97
SI (TGI) (SW-620): 0.87
SI (GI50) (NCI-H226): 1.15
SI (LC50) (NCI-H226): 0.83
SI (TGI) (NCI-H226): 0.74
SI (GI50) (SK-MEL-5): 1.09
SI (LC50) (SK-MEL-5): 0.97
SI (TGI) (SK-MEL-5): 0.87
SI (GI50) (DU-145): 2.30
SI (LC50) (DU-145): 2.34
SI (TGI) (DU-145): 2.89
SI (GI50) (MALME-3M): 0.45
SI (LC50) (MALME-3M): 0.81
SI (TGI) (MALME-3M): 0.62
SI (GI50) (HS 578T): 1.74
SI (LC50) (HS 578T): 1.10
SI (TGI) (HS 578T): 2.46
SI (GI50) (SNB-19): 0.93
SI (LC50) (SNB-19): 0.97
SI (TGI) (SNB-19): 0.89
SI (GI50) (MDA-MB-435): 1.20
SI (LC50) (MDA-MB-435): 1.29
SI (TGI) (MDA-MB-435): 1.02
SI (GI50) (BT-549): 1.51
SI (LC50) (BT-549): 1.05
SI (TGI) (BT-549): 1.51
SI (GI50) (Melanoma cell lines): 0.74
SI (LC50) (Melanoma cell lines): 0.90
SI (TGI) (Melanoma cell lines): 0.78
SI (GI50) (PC-3): 0.93
SI (LC50) (PC-3): 0.81
SI (TGI) (PC-3): 0.79
SI (LC50) (MDA-MB-231/ATCC): 0.49
SI (TGI) (MDA-MB-231/ATCC): 1.12
SI (GI50) (SN12C): 2.18
SI (LC50) (SN12C): 0.89
SI (TGI) (SN12C): 1.00
SI (GI50) (MOLT-4): 1.86
SI (LC50) (MOLT-4): 1.62
SI (TGI) (MOLT-4): 2.57
SI (GI50) (SR): 2.56
SI (LC50) (SR): 2.13
SI (TGI) (SR): 3.16
SI (GI50) (OVCAR-8): 1.12
SI (LC50) (OVCAR-8): 0.89
SI (TGI) (OVCAR-8): 1.00
SI (GI50) (HOP-62): 0.76
SI (LC50) (HOP-62): 0.87
SI (TGI) (HOP-62): 0.78
SI (GI50) [1]: 0.44
SI (LC50) [1]: 0.71
SI (TGI) [1]: 0.63
SI (GI50) (K-562): 1.41
SI (LC50) (K-562): 0.76
SI (TGI) (K-562): 0.92
SI (GI50) (SF-539): 2.00
SI (LC50) (SF-539): 2.95
SI (TGI) (SF-539): 2.88
SI (GI50) (NCI-H522): 1.12
SI (LC50) (NCI-H522): 0.98
SI (TGI) (NCI-H522): 1.29
SI (GI50) (786-0): 0.85
SI (LC50) (786-0): 0.93
SI (TGI) (786-0): 0.81
SI (GI50) (NCI/ADR-RES): 0.29
SI (TGI) (NCI/ADR-RES): 0.31
SI (GI50) [2]: 1.33
SI (LC50) [2]: 1.21
SI (TGI) [2]: 1.25
SI (GI50) (NCI-H460): 0.31
SI (LC50) (NCI-H460): 0.76
SI (TGI) (NCI-H460): 0.55
